Laboratory results from PubChem BioAssay AID248 (DTP/NCI, 2004).
The list does not hold the whole screen: it gathers tests that were run many times, whatever their T/C, doses with no T/C, and many T/C values between a quarter and a half above the control. Other doses and runs of a compound stand elsewhere. T/C is the treated group as % of the vehicle group. Some entries give survivors of the animals treated and no T/C: the source holds a T/C of zero for them, seemingly a mark for toxic or unscored doses. Some doses without a T/C left all or most animals alive at the check, yet need not have been tolerated: survival well below the control is almost never listed, so the zero probably covers shortened survival too. Counts of survivors are from the toxicity check (mostly the fifth day) where no day follows; animals may have died later. Schedule codes are those of the source, taken here to give the interval after Q, in days (D) or hours (H), and the number of doses after X. Some doses were run more than once; their values stand side by side, smallest first. Some schedule codes hold Z or #, which are not explained here. Some molecules as drawn cover several salts, stereoisomers or complexes of the source; a dose is that of the sample tested. For survival time, this PubChem deposit counts one and a half times the control or more as active, and values a quarter to a half above the control carry no call in these data; other NCI protocols may use other cut-offs. Some T/C values are followed by the survivors on the day toxicity was checked, most often the fifth; without a count, all were alive then.

Tested on: L1210 leukemia ip in BDF1 mice, survival T/C
Assay: NCI In Vivo Anticancer Drug Screen. Data for tumor model L1210 Leukemia (intraperitoneal) in B6D2F1 (BDF1) mice
Conditions: T/C endpoint: mean survival time, higher T/C = longer survival
[1] = dose: 400.0 mg/kg/injection, schedule: Q04DX002 (ip), vehicle: Klucel (hydroxypropylcellulose) (HPC)
[2] = dose: 400.0 mg/kg/injection, schedule: Q01DX009 (ip), vehicle: Klucel (hydroxypropylcellulose) (HPC)
[3] = dose: 400.0 mg/kg/injection, schedule: Q04DX003 (ip), vehicle: saline with Tween-80
[4] = dose: 100.0 mg/kg/injection, schedule: Q01DX009 (ip), vehicle: saline
[5] = dose: 400.0 mg/kg/injection, schedule: Q04DX003 (ip), vehicle: Klucel (hydroxypropylcellulose) (HPC)
[6] = dose: 200.0 mg/kg/injection, schedule: Q04DX003 (ip), vehicle: saline

CC1OC(OC2CCC3(C=O)C4CCC5(C)C(C6=CC(=O)OC6)CCC5(O)C4CCC3(O)C2)C(O)C(O)C1O (stereo unspecified)
survivor count (dose: 12.0 mg/kg/injection, schedule: Q01DX001 (ip), vehicle: carboxymethylcellulose (CMC)): 3 of 6
survivor count (dose: 25.0 mg/kg/injection, schedule: Q01DX001 (ip), vehicle: carboxymethylcellulose (CMC)): 0 of 6
survivor count (dose: 50.0 mg/kg/injection, schedule: Q01DX001 (ip), vehicle: carboxymethylcellulose (CMC)): 0 of 6
survivor count (dose: 100.0 mg/kg/injection, schedule: Q01DX001 (ip), vehicle: carboxymethylcellulose (CMC)): 1 of 6
survivor count (dose: 200.0 mg/kg/injection, schedule: Q01DX001 (ip), vehicle: carboxymethylcellulose (CMC)): 0 of 6
survivor count (dose: 400.0 mg/kg/injection, schedule: Q01DX001 (ip), vehicle: carboxymethylcellulose (CMC)): 0 of 6

CN=C(N)Nc1ccc(NC(=O)c2ccc(C(=O)Nc3ccc(NC(N)=NC)cc3)cc2)cc1
T/C (dose: 1.0 mg/kg/injection, schedule: Q01DX015 (ip), vehicle: methylcellulose (MC)): 136 % of control
T/C (dose: 1.0 mg/kg/injection, schedule: Q01DX Z (ip), vehicle: carboxymethylcellulose (CMC)): 138 % of control
T/C (dose: 5.0 mg/kg/injection, schedule: Q01DX001 (ip), vehicle: methylcellulose (MC)): 137 % of control
T/C (dose: 8.0 mg/kg/injection, schedule: Q01DX015 (ip), vehicle: methylcellulose (MC)): 134 % of control
T/C (dose: 8.0 mg/kg/injection, schedule: Q01DX Z (ip), vehicle: carboxymethylcellulose (CMC)): 144 % of control
T/C (dose: 10.0 mg/kg/injection, schedule: Q01DX001 (ip), vehicle: methylcellulose (MC)): 106, 119, 132, 139 % of control
T/C (dose: 20.0 mg/kg/injection, schedule: Q01DX001 (ip), vehicle: methylcellulose (MC)): 121, 143, 162, 176 % of control
T/C (dose: 30.0 mg/kg/injection, schedule: Q01DX001 (ip), vehicle: methylcellulose (MC)): 138 % of control [9 of 10 alive]
survivor count (dose: 32.0 mg/kg/injection, schedule: Q01DX015 (ip), vehicle: methylcellulose (MC)): 0 of 6
survivor count (dose: 34.0 mg/kg/injection, schedule: Q01DX Z (ip), vehicle: carboxymethylcellulose (CMC)): 6 of 6
survivor count (dose: 40.0 mg/kg/injection, schedule: Q01DX001 (ip), vehicle: methylcellulose (MC)): 1 of 6
survivor count (dose: 68.0 mg/kg/injection, schedule: Q01DX Z (ip), vehicle: carboxymethylcellulose (CMC)): 0 of 6
survivor count (dose: 136.0 mg/kg/injection, schedule: Q01DX Z (ip), vehicle: carboxymethylcellulose (CMC)): 0 of 6

NC(=O)/C=C/C(=O)O (tested in a mixture with another compound)
survivor count (dose: 250.0 mg/kg/injection, schedule: Q#A X Z (ip), vehicle: saline): 1 of 6

O=C(Nc1ccccc1)Oc1c(Cl)c(Cl)c(Cl)c(Cl)c1Cl
survivor count [1]: 0 of 3

C[N+]1(CCCNC(=O)Nc2ccc(Cl)cc2)CCOCC1
survivor count (dose: 100.0 mg/kg/injection, schedule: Q04DX002 (ip), vehicle: saline): 0 of 3
survivor count (dose: 200.0 mg/kg/injection, schedule: Q04DX002 (ip), vehicle: saline): 0 of 3
survivor count (dose: 400.0 mg/kg/injection, schedule: Q04DX002 (ip), vehicle: saline): 1 of 3

CC(C)CC(CC(C)C)NC(C)COC(=O)c1ccc(N)cc1 (stereo unspecified)
survivor count (dose: 150.0 mg/kg/injection, schedule: Q01DX001 (ip), vehicle: saline): 3 of 6
survivor count (dose: 300.0 mg/kg/injection, schedule: Q01DX001 (ip), vehicle: saline): 0 of 6

[N-]=[N+]=C1N=C(Cl)N=C1c1ncn[nH]1
survivor count (dose: 200.0 mg/kg/injection, schedule: Q01DX001 (ip), vehicle: Klucel (hydroxypropylcellulose) (HPC)): 1 of 3

CCN(CC)c1ccc(NC(=S)Nc2cccc(C(F)(F)F)c2)c(C)c1
survivor count [2]: 6 of 6

NNS(=O)(=O)CCCCCCCCCCC(=O)O
survivor count [3]: 6 of 6

Cc1cc(Cl)ccc1NC(=O)c1ccc([N+](=O)[O-])cc1
survivor count (dose: 400.0 mg/kg/injection, schedule: Q01DX009 (ip), vehicle: saline with Tween-80): 6 of 6

CC(NCCN1CC1)C1CC1 (stereo unspecified)
T/C (dose: 10.0 mg/kg/injection, schedule: Q01DX009 (ip), vehicle: saline): 130 % of control
T/C (dose: 40.0 mg/kg/injection, schedule: Q01DX009 (ip), vehicle: saline): 143 % of control
survivor count [4]: 0 of 6
survivor count (dose: 200.0 mg/kg/injection, schedule: Q01DX009 (ip), vehicle: saline): 0 of 6
survivor count (dose: 400.0 mg/kg/injection, schedule: Q01DX009 (ip), vehicle: saline): 0 of 6

O=C(NCc1ccc(Cl)c(Cl)c1)Nc1ccccc1F
survivor count (dose: 100.0 mg/kg/injection, schedule: Q01DX009 (ip), vehicle: Klucel (hydroxypropylcellulose) (HPC)): 6 of 6
survivor count (dose: 200.0 mg/kg/injection, schedule: Q01DX009 (ip), vehicle: Klucel (hydroxypropylcellulose) (HPC)): 6 of 6
survivor count [2]: 6 of 6

CN(C)C(=O)Oc1cccc2c1ccc[n+]2C
survivor count (dose: 6.25 mg/kg/injection, schedule: Q01DX001 (ip), vehicle: saline): 0 of 6
survivor count (dose: 12.5 mg/kg/injection, schedule: Q01DX001 (ip), vehicle: saline): 0 of 6
survivor count (dose: 25.0 mg/kg/injection, schedule: Q01DX001 (ip), vehicle: saline): 0 of 6
survivor count (dose: 50.0 mg/kg/injection, schedule: Q01DX001 (ip), vehicle: saline): 0 of 6
survivor count (dose: 100.0 mg/kg/injection, schedule: Q01DX001 (ip), vehicle: saline): 0 of 6
survivor count (dose: 200.0 mg/kg/injection, schedule: Q01DX001 (ip), vehicle: saline): 0 of 6
survivor count (dose: 400.0 mg/kg/injection, schedule: Q01DX001 (ip), vehicle: saline): 0 of 6

CC(CC(=O)O)C1Nc2ccccc2S(=O)(=O)C(c2ccccc2)C1=O (stereo unspecified)
survivor count (dose: 200.0 mg/kg/injection, schedule: Q04DX003 (ip), vehicle: Klucel (hydroxypropylcellulose) (HPC)): 1 of 6
survivor count [5]: 0 of 6 and 6 of 6

Clc1ccc(-c2ncc3cnccn23)cc1Cl
survivor count (dose: 100.0 mg/kg/injection, schedule: Q01DX009 (ip), vehicle: saline with Tween-80): 3 of 6
survivor count (dose: 200.0 mg/kg/injection, schedule: Q04DX003 (ip), vehicle: saline with Tween-80): 2 of 6
survivor count [3]: 0 of 6

NCCN1C(c2ccccc2)C1c1ccccc1 (stereo unspecified)
survivor count [6]: 3 of 6

NC(N)=N/N=C(/CCC(=O)O)C(=O)O
T/C (dose: 120.0 mg/kg/injection, schedule: Q01DX Z (oral), vehicle: carboxymethylcellulose (CMC)): 130 % of control
T/C (dose: 240.0 mg/kg/injection, schedule: Q01DX Z (oral), vehicle: carboxymethylcellulose (CMC)): 129 % of control
survivor count (dose: 480.0 mg/kg/injection, schedule: Q01DX Z (ip), vehicle: carboxymethylcellulose (CMC)): 6 of 6
T/C (dose: 480.0 mg/kg/injection, schedule: Q01DX Z (oral), vehicle: carboxymethylcellulose (CMC)): 129 % of control

O=C(CCCCC(=O)OCCBr)OCCBr
survivor count (dose: 100.0 mg/kg/injection, schedule: Q04DX003 (ip), vehicle: Klucel (hydroxypropylcellulose) (HPC)): 3 of 6
survivor count [5]: 3 of 6

CCCCCCCCCC(=O)N1CCOCC1
survivor count [4]: 2 of 6
survivor count [6]: 5 of 6
survivor count (dose: 400.0 mg/kg/injection, schedule: Q04DX003 (ip), vehicle: saline): 6 of 6

CCC(C)[P+](c1ccccc1)(c1ccccc1)c1ccccc1 (stereo unspecified)
survivor count (dose: 28.0 mg/kg/injection, schedule: Q01DX015 (ip), vehicle: carboxymethylcellulose (CMC)): 3 of 6
survivor count (dose: 50.0 mg/kg/injection, schedule: Q04DX002 (ip), vehicle: Klucel (hydroxypropylcellulose) (HPC)): 2 of 3
survivor count (dose: 56.0 mg/kg/injection, schedule: Q01DX015 (ip), vehicle: carboxymethylcellulose (CMC)): 0 of 6
survivor count (dose: 100.0 mg/kg/injection, schedule: Q04DX002 (ip), vehicle: Klucel (hydroxypropylcellulose) (HPC)): 2 of 3
survivor count (dose: 200.0 mg/kg/injection, schedule: Q04DX002 (ip), vehicle: Klucel (hydroxypropylcellulose) (HPC)): 0 of 3
survivor count [1]: 1 of 3
